Reference: the supplement of paper PMC10032668
Some of the results follow. The list holds hits alone, and they repeat only in part.

The chains behind the UniProt entries cited, without tags or fusion partners.
ASF1B, Q9NVP2, UniProt Q9NVP2, whole entry: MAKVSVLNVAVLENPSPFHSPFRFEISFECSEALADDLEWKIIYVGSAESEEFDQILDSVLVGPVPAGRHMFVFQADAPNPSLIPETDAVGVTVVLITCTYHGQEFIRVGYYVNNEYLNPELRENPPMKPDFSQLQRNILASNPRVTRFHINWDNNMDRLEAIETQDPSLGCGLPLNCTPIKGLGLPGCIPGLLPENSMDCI
C3, P01024, UniProt P01024, whole entry: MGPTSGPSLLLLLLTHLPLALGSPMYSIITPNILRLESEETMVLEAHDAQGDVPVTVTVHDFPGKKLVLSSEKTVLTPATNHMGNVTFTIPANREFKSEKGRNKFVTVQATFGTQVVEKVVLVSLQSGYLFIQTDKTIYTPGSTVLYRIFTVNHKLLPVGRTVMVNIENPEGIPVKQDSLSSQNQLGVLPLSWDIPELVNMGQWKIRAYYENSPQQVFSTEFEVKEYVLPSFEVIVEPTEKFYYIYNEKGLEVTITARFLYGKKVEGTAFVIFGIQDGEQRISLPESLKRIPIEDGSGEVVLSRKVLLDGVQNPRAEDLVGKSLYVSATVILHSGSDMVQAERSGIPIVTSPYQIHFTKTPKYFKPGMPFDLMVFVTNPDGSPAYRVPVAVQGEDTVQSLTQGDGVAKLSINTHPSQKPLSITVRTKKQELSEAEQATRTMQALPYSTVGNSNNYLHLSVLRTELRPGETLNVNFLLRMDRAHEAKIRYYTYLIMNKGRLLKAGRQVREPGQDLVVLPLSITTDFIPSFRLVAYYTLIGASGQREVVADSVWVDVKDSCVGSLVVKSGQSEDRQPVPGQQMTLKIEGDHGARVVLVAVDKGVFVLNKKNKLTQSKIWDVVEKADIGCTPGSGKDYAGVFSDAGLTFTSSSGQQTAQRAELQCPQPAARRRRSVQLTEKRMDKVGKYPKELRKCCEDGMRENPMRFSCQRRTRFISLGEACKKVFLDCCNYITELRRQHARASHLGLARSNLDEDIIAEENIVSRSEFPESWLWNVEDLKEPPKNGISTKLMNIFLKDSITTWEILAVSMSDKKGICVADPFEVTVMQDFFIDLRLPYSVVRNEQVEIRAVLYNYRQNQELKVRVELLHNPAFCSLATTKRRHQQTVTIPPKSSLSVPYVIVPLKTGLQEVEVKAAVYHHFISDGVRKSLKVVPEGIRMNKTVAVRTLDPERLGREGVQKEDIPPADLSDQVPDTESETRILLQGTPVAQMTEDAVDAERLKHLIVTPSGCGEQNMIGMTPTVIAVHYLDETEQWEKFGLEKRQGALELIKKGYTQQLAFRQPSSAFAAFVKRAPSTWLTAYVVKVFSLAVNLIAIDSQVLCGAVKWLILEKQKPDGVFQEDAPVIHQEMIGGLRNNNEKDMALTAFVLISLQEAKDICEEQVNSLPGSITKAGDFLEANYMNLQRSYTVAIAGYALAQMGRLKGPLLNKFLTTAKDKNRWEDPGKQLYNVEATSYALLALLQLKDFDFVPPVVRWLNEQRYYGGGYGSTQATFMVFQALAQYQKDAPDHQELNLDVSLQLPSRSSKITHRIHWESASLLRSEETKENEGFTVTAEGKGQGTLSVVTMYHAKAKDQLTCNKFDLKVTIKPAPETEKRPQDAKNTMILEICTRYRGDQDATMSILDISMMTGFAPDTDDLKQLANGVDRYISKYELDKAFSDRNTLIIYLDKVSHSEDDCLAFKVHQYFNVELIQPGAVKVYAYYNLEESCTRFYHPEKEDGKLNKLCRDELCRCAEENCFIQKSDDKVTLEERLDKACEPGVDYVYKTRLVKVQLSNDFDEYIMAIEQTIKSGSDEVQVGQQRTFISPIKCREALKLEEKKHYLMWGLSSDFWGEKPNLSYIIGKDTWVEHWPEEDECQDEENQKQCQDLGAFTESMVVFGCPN
ATP6AP1, Q15904, UniProt Q15904, whole entry: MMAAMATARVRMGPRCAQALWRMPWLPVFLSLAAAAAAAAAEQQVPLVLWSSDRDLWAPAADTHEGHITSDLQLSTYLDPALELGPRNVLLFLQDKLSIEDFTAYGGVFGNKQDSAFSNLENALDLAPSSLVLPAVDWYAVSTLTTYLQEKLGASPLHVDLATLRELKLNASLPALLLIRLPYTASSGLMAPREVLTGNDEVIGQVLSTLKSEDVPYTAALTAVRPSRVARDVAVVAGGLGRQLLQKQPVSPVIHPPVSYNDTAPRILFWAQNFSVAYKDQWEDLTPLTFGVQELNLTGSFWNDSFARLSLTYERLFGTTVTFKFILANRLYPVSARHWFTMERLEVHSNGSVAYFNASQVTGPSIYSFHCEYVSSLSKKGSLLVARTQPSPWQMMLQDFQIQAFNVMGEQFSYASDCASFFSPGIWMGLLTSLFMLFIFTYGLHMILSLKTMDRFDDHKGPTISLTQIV
CKS1B, P61024, UniProt P61024, whole entry: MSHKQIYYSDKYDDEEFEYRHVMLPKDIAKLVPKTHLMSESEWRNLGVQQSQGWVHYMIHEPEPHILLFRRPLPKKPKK
CKS2, P33552, UniProt P33552, whole entry: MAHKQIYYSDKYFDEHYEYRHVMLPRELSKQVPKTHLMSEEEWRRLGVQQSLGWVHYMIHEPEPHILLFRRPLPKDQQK
DNAJB1, P25685, UniProt P25685, whole entry: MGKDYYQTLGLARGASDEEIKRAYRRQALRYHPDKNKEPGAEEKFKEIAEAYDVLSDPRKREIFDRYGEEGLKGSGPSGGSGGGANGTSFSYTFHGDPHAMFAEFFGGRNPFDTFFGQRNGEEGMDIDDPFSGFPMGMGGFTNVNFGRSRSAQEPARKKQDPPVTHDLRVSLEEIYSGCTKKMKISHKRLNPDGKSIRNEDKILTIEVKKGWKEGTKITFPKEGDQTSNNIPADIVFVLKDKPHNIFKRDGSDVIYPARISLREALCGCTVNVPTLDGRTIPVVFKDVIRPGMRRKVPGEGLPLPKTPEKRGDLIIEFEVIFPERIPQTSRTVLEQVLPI
GABARAP, O95166, UniProt O95166, whole entry: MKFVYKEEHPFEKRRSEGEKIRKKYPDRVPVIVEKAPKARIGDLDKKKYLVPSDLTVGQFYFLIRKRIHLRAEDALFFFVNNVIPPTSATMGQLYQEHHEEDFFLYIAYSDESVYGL
SRSF9, Q13242, UniProt Q13242, whole entry: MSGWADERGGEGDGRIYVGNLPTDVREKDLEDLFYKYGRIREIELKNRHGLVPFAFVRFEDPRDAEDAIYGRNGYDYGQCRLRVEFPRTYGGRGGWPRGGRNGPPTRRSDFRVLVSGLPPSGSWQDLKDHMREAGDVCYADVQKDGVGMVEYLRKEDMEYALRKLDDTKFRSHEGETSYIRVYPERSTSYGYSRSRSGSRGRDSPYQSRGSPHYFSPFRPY
ARID1A, O14497, UniProt O14497, whole entry: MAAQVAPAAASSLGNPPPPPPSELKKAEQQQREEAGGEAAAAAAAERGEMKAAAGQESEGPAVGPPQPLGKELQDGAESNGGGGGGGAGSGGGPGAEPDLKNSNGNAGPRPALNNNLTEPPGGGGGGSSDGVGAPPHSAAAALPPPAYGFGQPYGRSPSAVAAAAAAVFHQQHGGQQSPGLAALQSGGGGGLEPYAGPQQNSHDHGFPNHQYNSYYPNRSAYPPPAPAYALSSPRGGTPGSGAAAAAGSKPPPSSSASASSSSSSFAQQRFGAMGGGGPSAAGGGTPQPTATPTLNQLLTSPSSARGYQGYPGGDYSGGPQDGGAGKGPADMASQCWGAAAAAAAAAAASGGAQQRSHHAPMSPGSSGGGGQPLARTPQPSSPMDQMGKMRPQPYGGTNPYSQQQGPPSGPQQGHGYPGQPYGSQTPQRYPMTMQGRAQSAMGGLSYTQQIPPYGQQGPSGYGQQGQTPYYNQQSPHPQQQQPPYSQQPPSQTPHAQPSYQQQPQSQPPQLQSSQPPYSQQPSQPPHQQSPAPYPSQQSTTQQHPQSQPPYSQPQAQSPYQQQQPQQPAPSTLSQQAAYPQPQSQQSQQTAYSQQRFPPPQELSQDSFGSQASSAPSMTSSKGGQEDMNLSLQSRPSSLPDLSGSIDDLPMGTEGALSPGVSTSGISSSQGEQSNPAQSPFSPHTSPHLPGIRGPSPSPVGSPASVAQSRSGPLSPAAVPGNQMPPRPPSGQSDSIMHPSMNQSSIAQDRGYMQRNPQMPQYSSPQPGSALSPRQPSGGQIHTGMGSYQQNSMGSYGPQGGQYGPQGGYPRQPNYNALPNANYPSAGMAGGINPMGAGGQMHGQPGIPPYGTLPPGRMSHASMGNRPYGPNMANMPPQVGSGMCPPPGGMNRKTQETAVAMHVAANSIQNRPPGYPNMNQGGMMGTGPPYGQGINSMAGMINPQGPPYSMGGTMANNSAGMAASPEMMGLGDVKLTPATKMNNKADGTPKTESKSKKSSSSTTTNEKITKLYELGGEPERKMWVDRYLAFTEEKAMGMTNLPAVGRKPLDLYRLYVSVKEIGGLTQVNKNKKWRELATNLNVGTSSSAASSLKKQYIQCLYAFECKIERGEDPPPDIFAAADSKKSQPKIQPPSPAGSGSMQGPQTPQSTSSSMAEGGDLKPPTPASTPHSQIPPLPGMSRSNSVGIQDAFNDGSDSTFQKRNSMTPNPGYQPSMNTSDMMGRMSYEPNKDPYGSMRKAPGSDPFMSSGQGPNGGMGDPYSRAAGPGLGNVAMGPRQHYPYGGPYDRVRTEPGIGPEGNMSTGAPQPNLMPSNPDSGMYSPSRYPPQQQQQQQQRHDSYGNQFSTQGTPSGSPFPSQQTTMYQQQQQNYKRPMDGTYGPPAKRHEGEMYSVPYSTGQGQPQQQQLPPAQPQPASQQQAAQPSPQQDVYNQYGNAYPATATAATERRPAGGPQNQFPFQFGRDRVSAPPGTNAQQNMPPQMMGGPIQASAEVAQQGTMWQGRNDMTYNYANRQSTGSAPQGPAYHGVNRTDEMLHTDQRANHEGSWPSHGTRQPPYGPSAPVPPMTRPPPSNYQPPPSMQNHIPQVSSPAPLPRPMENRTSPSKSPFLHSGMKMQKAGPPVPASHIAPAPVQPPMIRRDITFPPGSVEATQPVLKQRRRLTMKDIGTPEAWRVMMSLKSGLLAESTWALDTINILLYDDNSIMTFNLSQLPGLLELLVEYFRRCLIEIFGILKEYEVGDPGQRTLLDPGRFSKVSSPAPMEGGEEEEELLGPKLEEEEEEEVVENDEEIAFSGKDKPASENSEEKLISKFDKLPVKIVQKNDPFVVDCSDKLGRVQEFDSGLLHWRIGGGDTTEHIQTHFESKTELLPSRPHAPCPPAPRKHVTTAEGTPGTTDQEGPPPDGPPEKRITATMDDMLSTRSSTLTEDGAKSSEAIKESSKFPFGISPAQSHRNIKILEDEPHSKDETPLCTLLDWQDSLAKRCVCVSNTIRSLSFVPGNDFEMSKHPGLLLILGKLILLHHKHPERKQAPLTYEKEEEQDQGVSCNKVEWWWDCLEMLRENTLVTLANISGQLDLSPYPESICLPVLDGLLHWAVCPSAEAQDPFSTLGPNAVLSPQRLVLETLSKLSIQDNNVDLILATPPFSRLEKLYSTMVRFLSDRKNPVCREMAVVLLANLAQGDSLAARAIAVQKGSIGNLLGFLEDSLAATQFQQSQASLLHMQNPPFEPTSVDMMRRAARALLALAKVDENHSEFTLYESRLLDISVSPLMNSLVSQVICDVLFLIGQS
DCTN3, O75935, UniProt O75935, whole entry: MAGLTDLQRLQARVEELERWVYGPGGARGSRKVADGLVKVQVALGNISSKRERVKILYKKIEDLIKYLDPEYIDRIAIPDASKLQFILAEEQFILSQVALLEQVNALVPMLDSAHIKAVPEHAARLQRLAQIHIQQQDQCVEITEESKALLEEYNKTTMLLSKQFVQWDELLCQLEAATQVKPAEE
LANCL1, O43813, UniProt O43813, whole entry: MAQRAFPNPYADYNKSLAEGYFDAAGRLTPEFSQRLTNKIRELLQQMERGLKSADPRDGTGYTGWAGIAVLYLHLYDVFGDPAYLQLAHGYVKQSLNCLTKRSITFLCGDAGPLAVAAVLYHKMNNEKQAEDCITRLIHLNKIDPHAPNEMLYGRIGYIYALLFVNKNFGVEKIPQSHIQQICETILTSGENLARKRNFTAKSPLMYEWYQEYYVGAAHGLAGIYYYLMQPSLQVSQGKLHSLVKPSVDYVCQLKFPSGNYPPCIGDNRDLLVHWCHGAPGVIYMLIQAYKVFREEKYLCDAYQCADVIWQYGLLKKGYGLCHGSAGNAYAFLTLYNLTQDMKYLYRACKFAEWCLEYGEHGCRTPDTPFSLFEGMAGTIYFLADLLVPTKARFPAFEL
SS18, Q15532, UniProt Q15532, whole entry: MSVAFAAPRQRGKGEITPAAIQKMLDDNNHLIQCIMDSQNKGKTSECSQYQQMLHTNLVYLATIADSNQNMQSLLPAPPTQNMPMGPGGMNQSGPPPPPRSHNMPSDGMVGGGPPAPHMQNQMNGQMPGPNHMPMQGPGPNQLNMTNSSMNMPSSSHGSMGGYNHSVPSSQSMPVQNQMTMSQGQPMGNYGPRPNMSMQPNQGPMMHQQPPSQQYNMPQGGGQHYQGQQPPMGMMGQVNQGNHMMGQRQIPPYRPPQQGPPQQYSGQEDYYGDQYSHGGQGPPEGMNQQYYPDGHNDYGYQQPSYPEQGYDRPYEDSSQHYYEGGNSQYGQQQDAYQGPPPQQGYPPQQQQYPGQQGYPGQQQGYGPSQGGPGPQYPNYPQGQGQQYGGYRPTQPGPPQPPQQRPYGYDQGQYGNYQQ

Key:
Experiment in all cases: PRISMA enrichment of interactor (LFQ) in peptide spot vs all other peptide spots (log2 fold change); higher = stronger / more specific binding of the interactor to the peptide
ASF1B, Q9NVP2 = target: ASF1B, Q9NVP2
Experimental: (§1)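 PRISMA: 221 full-length sORF-encoded peptides (3-15 aa), plus SOS1/GLUT1 control peptides, were spot-synthesized on cellulose membranes in triplicate. Membranes were incubated with HEK293T lysate, and bound proteins were identified by LC-MS/MS with LFQ. Enrichment is the log2 fold change versus all other peptide spots; only significant interactors are listed (cutoff c=6, x0=2.8).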

C3, P01024 = target: C3, P01024
Experimental: as §1

CLTA, P09496 = target: CLTA, P09496
Experimental: as §1

COG5, Q9UP83 = target: COG5, Q9UP83
Experimental: as §1

EDRF1, Q3B7T1 = target: EDRF1, Q3B7T1
Experimental: as §1

KIF20A, O95235 = target: KIF20A, O95235
Experimental: as §1

KIF2C, Q99661 = target: KIF2C, Q99661
Experimental: as §1

NUP58, Q9BVL2 = target: NUP58, Q9BVL2
Experimental: as §1

PURA, Q00577 = target: PURA, Q00577
Experimental: as §1

ANXA1, P04083 = target: ANXA1, P04083
Experimental: as §1

CC2D1A, Q6P1N0 = target: CC2D1A, Q6P1N0
Experimental: as §1

CSNK1A1, P48729 = target: CSNK1A1, P48729
Experimental: as §1

CSNK1E, P49674 = target: CSNK1E, P49674
Experimental: as §1

FRYL, O94915 = target: FRYL, O94915
Experimental: as §1

PLK1, P53350 = target: PLK1, P53350
Experimental: as §1

RAE1, P78406 = target: RAE1, P78406
Experimental: as §1

WDR5, P61964 = target: WDR5, P61964
Experimental: as §1

ATP6AP1, Q15904 = target: ATP6AP1, Q15904
Experimental: as §1

NUDT16L1, Q9BRJ7 = target: NUDT16L1, Q9BRJ7
Experimental: as §1

POLDIP2, Q9Y2S7 = target: POLDIP2, Q9Y2S7
Experimental: as §1

AP2A1, O95782 = target: AP2A1, O95782
Experimental: as §1

AP2A2, O94973 = target: AP2A2, O94973
Experimental: as §1

AP2B1, P63010 = target: AP2B1, P63010
Experimental: as §1

AP2M1, Q96CW1 = target: AP2M1, Q96CW1
Experimental: as §1

CKS1B, P61024 = target: CKS1B, P61024
Experimental: as §1

CKS2, P33552 = target: CKS2, P33552
Experimental: as §1

CXorf56, Q9H5V9 = target: CXorf56, Q9H5V9
Experimental: as §1

DAZAP1, Q96EP5 = target: DAZAP1, Q96EP5
Experimental: as §1

DERPC, P0CG12 = target: DERPC, P0CG12
Experimental: as §1

DNAJA3, Q96EY1 = target: DNAJA3, Q96EY1
Experimental: as §1

DNAJB1, P25685 = target: DNAJB1, P25685
Experimental: as §1

DNAJB4, Q9UDY4 = target: DNAJB4, Q9UDY4
Experimental: as §1

ENDOG, Q14249 = target: ENDOG, Q14249
Experimental: as §1

FKBP2, P26885 = target: FKBP2, P26885
Experimental: as §1

GABARAP, O95166 = target: GABARAP, O95166
Experimental: as §1

SSBP1, Q04837 = target: SSBP1, Q04837
Experimental: as §1

APOBEC3C, Q9NRW3 = target: APOBEC3C, Q9NRW3
Experimental: as §1

CRNKL1, Q9BZJ0 = target: CRNKL1, Q9BZJ0
Experimental: as §1

MAZ, P56270 = target: MAZ, P56270
Experimental: as §1

PUM3, Q15397 = target: PUM3, Q15397
Experimental: as §1

SAMD1, Q6SPF0 = target: SAMD1, Q6SPF0
Experimental: as §1

SLC37A4, O43826 = target: SLC37A4, O43826
Experimental: as §1

SORBS1, Q9BX66 = target: SORBS1, Q9BX66
Experimental: as §1

SRSF9, Q13242 = target: SRSF9, Q13242
Experimental: as §1

TBL2, Q9Y4P3 = target: TBL2, Q9Y4P3
Experimental: as §1

TXNL4A, P83876 = target: TXNL4A, P83876
Experimental: as §1

ATP5ME, P56385 = target: ATP5ME, P56385
Experimental: as §1

[1] = substrate: BCCIP, Q9P287
Experimental: as §1

CHCHD2, Q9Y6H1 = target: CHCHD2, Q9Y6H1
Experimental: as §1

MRPL10, Q7Z7H8 = target: MRPL10, Q7Z7H8
Experimental: as §1

NAP1L1, P55209 = target: NAP1L1, P55209
Experimental: as §1

NAP1L4, Q99733 = target: NAP1L4, Q99733
Experimental: as §1

PPM1G, O15355 = target: PPM1G, O15355
Experimental: as §1

ARID1A, O14497 = target: ARID1A, O14497
Experimental: as §1

IPO11, Q9UI26 = target: IPO11, Q9UI26
Experimental: as §1

LIG1, P18858 = target: LIG1, P18858
Experimental: as §1

SDF4, Q9BRK5 = target: SDF4, Q9BRK5
Experimental: as §1

ZYX, Q15942 = target: ZYX, Q15942
Experimental: as §1

ASPM, Q8IZT6 = target: ASPM, Q8IZT6
Experimental: as §1

DCTN3, O75935 = target: DCTN3, O75935
Experimental: as §1

GAS1, P54826 = target: GAS1, P54826
Experimental: as §1

RCN2, Q14257 = target: RCN2, Q14257
Experimental: as §1

SAPCD2, Q86UD0 = target: SAPCD2, Q86UD0
Experimental: as §1

ANXA7, P20073 = target: ANXA7, P20073
Experimental: as §1

COA7, Q96BR5 = target: COA7, Q96BR5
Experimental: as §1

FAM168A, Q92567 = target: FAM168A, Q92567
Experimental: as §1

LANCL1, O43813 = target: LANCL1, O43813
Experimental: as §1

MAPK1IP1L, Q8NDC0 = target: MAPK1IP1L, Q8NDC0
Experimental: as §1

PDCD6, O75340 = target: PDCD6, O75340
Experimental: as §1

SRI, P30626 = target: SRI, P30626
Experimental: as §1

SS18, Q15532 = target: SS18, Q15532
Experimental: as §1

B1: NHLRC2 (peptide)
chain: MRRLETTGQ
PRISMA enrichment of interactor (log2) (ASF1B, Q9NVP2): 5.11 | PRISMA enrichment of interactor (log2) (C3, P01024): 5.4 | PRISMA enrichment of interactor (log2) (CLTA, P09496): 6.84 | PRISMA enrichment of interactor (log2) (COG5, Q9UP83): 5.64 | PRISMA enrichment of interactor (log2) (EDRF1, Q3B7T1): 6.26 | PRISMA enrichment of interactor (log2) (KIF20A, O95235): 4.56 | PRISMA enrichment of interactor (log2) (KIF2C, Q99661): 5.78 | PRISMA enrichment of interactor (log2) (NUP58, Q9BVL2): 5.63 | PRISMA enrichment of interactor (log2) (PURA, Q00577): 6.51

B2: ATG3 (peptide)
chain: MRVGGSEDIF
PRISMA enrichment of interactor (log2) (ANXA1, P04083): 5.4 | PRISMA enrichment of interactor (log2) (CC2D1A, Q6P1N0): 5.45 | PRISMA enrichment of interactor (log2) (CSNK1A1, P48729): 7.16 | PRISMA enrichment of interactor (log2) (CSNK1E, P49674): 7.01 | PRISMA enrichment of interactor (log2) (FRYL, O94915): 4.63 | PRISMA enrichment of interactor (log2) (PLK1, P53350): 7.97 | PRISMA enrichment of interactor (log2) (RAE1, P78406): 5.22 | PRISMA enrichment of interactor (log2) (WDR5, P61964): 7.05

B3: UBL3 (peptide)
chain: MTGGGRGVWD
PRISMA enrichment of interactor (log2) (ATP6AP1, Q15904): 5.99 | PRISMA enrichment of interactor (log2) (NUDT16L1, Q9BRJ7): 5.77 | PRISMA enrichment of interactor (log2) (POLDIP2, Q9Y2S7): 6.57

B4: ARMC1 (peptide)
chain: MVWQALDS
PRISMA enrichment of interactor (log2) (AP2A1, O95782): 7.21 | PRISMA enrichment of interactor (log2) (AP2A2, O94973): 6.92 | PRISMA enrichment of interactor (log2) (AP2B1, P63010): 6.61 | PRISMA enrichment of interactor (log2) (AP2M1, Q96CW1): 6.89 | PRISMA enrichment of interactor (log2) (CKS1B, P61024): 5.21 | PRISMA enrichment of interactor (log2) (CKS2, P33552): 5.06 | PRISMA enrichment of interactor (log2) (CSNK1E, P49674): 6.42 | PRISMA enrichment of interactor (log2) (CXorf56, Q9H5V9): 5.61 | PRISMA enrichment of interactor (log2) (DAZAP1, Q96EP5): 5.31 | PRISMA enrichment of interactor (log2) (DERPC, P0CG12): 5.55 | PRISMA enrichment of interactor (log2) (DNAJA3, Q96EY1): 5.97 | PRISMA enrichment of interactor (log2) (DNAJB1, P25685): 6.14 | PRISMA enrichment of interactor (log2) (DNAJB4, Q9UDY4): 4.75 | PRISMA enrichment of interactor (log2) (ENDOG, Q14249): 5.09 | PRISMA enrichment of interactor (log2) (FKBP2, P26885): 5.56 | PRISMA enrichment of interactor (log2) (GABARAP, O95166): 4.24 | PRISMA enrichment of interactor (log2) (NUDT16L1, Q9BRJ7): 5.2 | PRISMA enrichment of interactor (log2) (PLK1, P53350): 5.37 | PRISMA enrichment of interactor (log2) (RAE1, P78406): 5.48 | PRISMA enrichment of interactor (log2) (SSBP1, Q04837): 5.4

B5: B3GALT2 (peptide)
chain: MKERENFRRLGPI
PRISMA enrichment of interactor (log2) (APOBEC3C, Q9NRW3): 4.59 | PRISMA enrichment of interactor (log2) (CRNKL1, Q9BZJ0): 6.2 | PRISMA enrichment of interactor (log2) (MAZ, P56270): 4.98 | PRISMA enrichment of interactor (log2) (PUM3, Q15397): 4.64 | PRISMA enrichment of interactor (log2) (SAMD1, Q6SPF0): 8.66 | PRISMA enrichment of interactor (log2) (SLC37A4, O43826): 7.01 | PRISMA enrichment of interactor (log2) (SORBS1, Q9BX66): 4.9 | PRISMA enrichment of interactor (log2) (SRSF9, Q13242): 6.3 | PRISMA enrichment of interactor (log2) (TBL2, Q9Y4P3): 5.69 | PRISMA enrichment of interactor (log2) (TXNL4A, P83876): 4.24

B6: LMBR1 (peptide)
chain: MVWRSTRTRAARRRA
PRISMA enrichment of interactor (log2) (ATP5ME, P56385): 5.27 | PRISMA enrichment of interactor (log2) [1]: 4.99 | PRISMA enrichment of interactor (log2) (CHCHD2, Q9Y6H1): 4.51 | PRISMA enrichment of interactor (log2) (MRPL10, Q7Z7H8): 5.39 | PRISMA enrichment of interactor (log2) (NAP1L1, P55209): 6.66 | PRISMA enrichment of interactor (log2) (NAP1L4, Q99733): 5.68 | PRISMA enrichment of interactor (log2) (PPM1G, O15355): 5.39

B7: SVIL-AS1 (peptide)
chain: MDEDVLHPEEPHHR
PRISMA enrichment of interactor (log2) (ARID1A, O14497): 3.97 | PRISMA enrichment of interactor (log2) (CSNK1A1, P48729): 5.35 | PRISMA enrichment of interactor (log2) (IPO11, Q9UI26): 5.97 | PRISMA enrichment of interactor (log2) (LIG1, P18858): 4.82 | PRISMA enrichment of interactor (log2) (SDF4, Q9BRK5): 4.81 | PRISMA enrichment of interactor (log2) (ZYX, Q15942): 4.96

B8: STAT1 (peptide)
chain: MPSSRAV
PRISMA enrichment of interactor (log2) (ASPM, Q8IZT6): 4.32 | PRISMA enrichment of interactor (log2) (DCTN3, O75935): 4.44 | PRISMA enrichment of interactor (log2) (GAS1, P54826): 7.14 | PRISMA enrichment of interactor (log2) (RCN2, Q14257): 6.55 | PRISMA enrichment of interactor (log2) (SAPCD2, Q86UD0): 6.37

B9: STRAP (peptide)
chain: MPVWTL
PRISMA enrichment of interactor (log2) (ANXA7, P20073): 4.78 | PRISMA enrichment of interactor (log2) (COA7, Q96BR5): 5.68 | PRISMA enrichment of interactor (log2) (FAM168A, Q92567): 4.89 | PRISMA enrichment of interactor (log2) (LANCL1, O43813): 4.74 | PRISMA enrichment of interactor (log2) (MAPK1IP1L, Q8NDC0): 4.84 | PRISMA enrichment of interactor (log2) (PDCD6, O75340): 6.57 | PRISMA enrichment of interactor (log2) (SRI, P30626): 4.92 | PRISMA enrichment of interactor (log2) (SS18, Q15532): 4.06
